US20220213170A1 (Hubro Therapeutics AS, priority 2019, published 2022)
End groups of sequences in plain letters are not given here.

Assay: general procedure: Fmoc solid-phase peptide synthesis
Conditions: whole synthesis, TFA; for final HPLC purity: UPLC, Acquity UPLC BEH C18, PDA 210-500 nm

SSGVPVALMSAMTTSSSQKN (Modified peptide)
final HPLC purity: 91.9%

KGIMKEKKSLVRLSSCVPVALMSA (Modified peptide)
final HPLC purity: 97%

SSCVPVALMSAMTTSSSQKN
final HPLC purity: 94.8%

KCIMKEKKSLVRLSSCVPVALMSAMTTSSSQKN (listed as Homo sapiens)
crude HPLC purity (PDA 210-500 nm): around 75% | difficulty met (run 1): Only very small amounts of the desired peptide were obtained, and analysis by UPLC found that the peptide was impure | difficulty met (run 2): Again, only very small amounts of purified fsp5 (SEQ ID NO: 3) were obtained | final HPLC purity (run 1): about 90% | final HPLC purity (run 2): below 50%

KCIMKEKKSLVRLSSCVPVALMSA (listed as Homo sapiens)
final HPLC purity: 96%
